In PubChem BioAssay AID1671190 (National Center for Advancing Translational Sciences (NCATS), 2021):
Values joined by “and” are separate entries in the source; they are usually repeats but may differ in a detail not shown here. Equal values may be shown once. About 6,100 (1.1%) of roughly 580,000 compounds were called active. This list was built around the results that the source calls inconclusive (neither active nor inactive); the mix of calls is not that of the screen. Calls follow the shape of the dose curve; as a rule, active = well fitted inhibition curve with a large enough effect; inconclusive = small, poorly fitted or top-dose-only effect, or another doubt; inactive = no such curve, though single readings can be large or run the other way. A potency beside an inconclusive call is a rough fit, not a confirmed value.

Protein sequences, listed by entry. Tags and fused reporters are not part of them. Lines headed by an entry give the natural chain unless they say otherwise; changes in a name come on top.
UniProt P18054: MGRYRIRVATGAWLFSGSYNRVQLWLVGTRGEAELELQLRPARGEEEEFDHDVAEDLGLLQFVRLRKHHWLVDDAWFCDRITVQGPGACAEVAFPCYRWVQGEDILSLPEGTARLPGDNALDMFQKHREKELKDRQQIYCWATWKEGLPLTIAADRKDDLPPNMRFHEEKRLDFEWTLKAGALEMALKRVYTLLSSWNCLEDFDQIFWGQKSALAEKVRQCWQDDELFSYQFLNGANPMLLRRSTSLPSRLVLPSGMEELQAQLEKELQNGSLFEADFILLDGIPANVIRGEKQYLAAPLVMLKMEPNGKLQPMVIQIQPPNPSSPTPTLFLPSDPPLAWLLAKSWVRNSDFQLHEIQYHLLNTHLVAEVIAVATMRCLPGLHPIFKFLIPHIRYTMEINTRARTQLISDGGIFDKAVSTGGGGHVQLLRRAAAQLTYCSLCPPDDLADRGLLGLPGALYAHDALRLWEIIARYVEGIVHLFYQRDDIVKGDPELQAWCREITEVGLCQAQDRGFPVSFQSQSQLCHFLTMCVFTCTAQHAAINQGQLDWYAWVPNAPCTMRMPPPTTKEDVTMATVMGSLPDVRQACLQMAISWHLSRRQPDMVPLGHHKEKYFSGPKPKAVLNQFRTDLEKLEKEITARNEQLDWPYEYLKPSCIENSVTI

Biological target: Polyunsaturated fatty acid lipoxygenase ALOX12 (Homo sapiens) (UniProt P18054)
Experiment: Primary qHTS assay for inhibitors of human arachidonate 12S-lipoxygenase (ALOX12): Round 2
Conditions: purified 12hLO, xylenol orange hydroperoxide absorbance; activity change, negative = inhibition: at 108 µM (top of the series) unless noted
Summary of the method: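 Purified human 12hLO (150 nM final) in 25 mM Hepes, 0.01% Triton X-100, pH 7.0 was preincubated 15 min at room temperature with compound. Then 40 uM arachidonic acid was added, 30 min. Hydroperoxide was read by Fe-XO absorbance ratio 573/405 nm.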
% is scaled to controls: 0 for no effect and ±100 for the full control effect; potency is read from the fitted curve at half-maximal effect.

With `COc1ccc(CNc2ncnc3c2CN(C2CCCNC2)C(=O)CN3C)cc1OC` (configuration not stated) as the compound, how does the Potency read?
Its Potency is inconclusive: 10 µM [inhibitor, full curve].

`COCCSc1ccccc1C(=O)Nc1ccc(S(=O)(=O)N2CCOCC2)cc1` was tested. Which Potency did it give?
The Potency was inconclusive: 44.7 µM [inhibitor, partial curve, poor fit].

Which Potency does the source give for `COCCn1c(-n2nc(C)cc2C)nc2c1c(=O)n(Cc1ccccc1Cl)c(=O)n2C` here?
Its Potency is “inactive”.

Which Potency does the source give for `CN1CCN(c2ncncc2-c2ccoc2)CC1` here?
The Potency was inconclusive: 39.8 µM [inhibitor, partial curve, poor fit].

With `CC1=[N+]([O-])C(C)(C)CC(C)(C)c2ccccc21` as the compound, how does the Potency read?
Its Potency is inconclusive: 44.7 µM [inhibitor, partial curve].

With `NC(=S)NCCc1ccccc1` as the compound, how does the Potency read?
Its Potency is inconclusive: 39.8 µM [inhibitor, partial curve, poor fit].

With `CCCCc1n[nH]c(=S)n1Cc1ccc(Cl)cc1` as the compound, how does the Potency read?
The Potency was inconclusive: 44.7 µM [inhibitor, partial curve, poor fit].

Which Potency does the source give for `CCNC(=O)C1C(c2cccc(NC(=O)c3ccc(OC)cc3)c2)OC(=O)N1Cc1ccc(C)cc1` (configuration not stated) here?
Its Potency is inconclusive: 20 µM [inhibitor, partial curve].

How did the Potency turn out when `CCOC(=O)c1c(C)[nH]c(C(=O)/C(C#N)=C/c2ccc(OCC)cc2)c1C` was run?
The Potency was inconclusive: 25.1 µM [inhibitor, partial curve, poor fit].

`Cn1cc(-c2nc3cnc(Oc4ccccc4)nc3n(Cc3cccs3)c2=O)c2ccccc21` was tested. Which Potency did it give?
The Potency was inconclusive: 39.8 µM [inhibitor, single point].

For `Cc1cc(C)cc(Oc2nc(-c3ccncc3)nc3ccccc23)c1`, which Potency is on record?
The Potency was inconclusive: 141 µM [inhibitor, single point].

Which Potency does the source give for `CN(Cc1cccc(F)c1)S(=O)(=O)c1cccc2nsnc12` here?
Its Potency is “inactive”.

How did the Potency turn out when `CCOC(=O)C1(C)/C(=N/Nc2ccccc2)C(=O)C(=O)N1c1ccccc1` (configuration not stated) was run?
The Potency was inconclusive: 35.5 µM [inhibitor, single point].

For `O=C(O)CCCCCCCCCCCc1ccccc1`, which Potency is on record?
Its Potency is “inactive”.

How did the Potency turn out when `N#Cc1cccc(CN2CC(COc3ccccc3)C3(C2)CN(c2ccccc2)C3)c1` (configuration not stated) was run?
Its Potency is “inactive”.

Which Potency does the source give for `CCC(C)NS(=O)(=O)c1ccc(S(=O)(=O)N2CCCC3(CCCCC3)C2)cc1` (configuration not stated) here?
The Potency was “inactive”.

For `O=C(O)c1cc(-c2ccc(/C=N/N3C(=O)C4C5C=CC(C6CC56)C4C3=O)o2)ccc1Cl` (configuration not stated), which Potency is on record?
The Potency was “inactive”.

Which Potency does the source give for `Cc1cc2nc(CO[C@H]3CN(Cc4ccc(S(C)(=O)=O)cc4)C[C@H]3F)[nH]c2cc1C` here?
Its Potency is “inactive”.

`CC(Sc1nnc(C2CC2)n1Cc1ccco1)C(=O)Nc1ccnn1C(C)C` (configuration not stated) was tested. Which Potency did it give?
The Potency was “inactive”.

With `COC(=O)c1cc2sc(C)cc2n1Cc1ccc(Br)cc1F` as the compound, how does the activity change, negative = inhibition read?
The activity change, negative = inhibition was inconclusive: -33.7% [inhibitor].

With `C=CCn1c(NCCCOC)nc2c1c(=O)n(C)c(=O)n2C` as the compound, how does the Potency read?
Its Potency is inconclusive: 126 µM [inhibitor, partial curve, poor fit].

With `COC(=O)c1ccc(/C=C(\C#N)C(=O)NC(C)c2ccccc2)cc1` (configuration not stated) as the compound, how does the Potency read?
The Potency was inconclusive: 44.7 µM [inhibitor, partial curve, poor fit].

How did the Potency turn out when `Cc1cccc(C)c1NC(=O)C1CCCN1S(=O)(=O)c1ccc(-c2ccc(=O)[nH]n2)s1` (configuration not stated) was run?
The Potency was “inactive”.

With `COCCCNC(=O)[C@H](Cc1ccccc1)NC(=O)CC[C@H]1O[C@@H](n2ccc(=O)[nH]c2=O)[C@H](O)[C@@H]1O` as the compound, how does the Potency read?
Its Potency is inconclusive: 141 µM [inhibitor, single point].

For `CC(NC(=O)COc1ccc(F)cc1F)c1ccccc1-n1cccn1` (configuration not stated), which Potency is on record?
Its Potency is “inactive”.

`CC(C)Cc1ccc(CN2CCC3(CC2)Cc2ccccc2CNC3=O)cc1` was tested. Which Potency did it give?
The Potency was inconclusive: 56.2 µM [inhibitor, partial curve, poor fit].

`CC12CCC(C[N+](C)(CCC[N+](C)(C)C)C1)C2(C)C` (configuration not stated) was tested. Which Potency did it give?
The Potency was inconclusive: 44.7 µM [inhibitor, partial curve, poor fit].

For `CC(CCc1ccccc1)NC(=O)C(C)OC(=O)c1ccco1` (configuration not stated), which Potency is on record?
Its Potency is inconclusive: 126 µM [inhibitor, single point].

`CCOc1ccccc1N1CCN(C(=O)c2ccc(-c3ccc(OC(C)=O)cc3)cc2)CC1` was tested. Which Potency did it give?
Its Potency is inconclusive: 5.62 µM [inhibitor, partial curve, poor fit].

For `COc1cc2c(cc1OC)CN(Cc1ccc(OC)c(C)c1OC)CC2`, which Potency is on record?
The Potency was inconclusive: 1 µM [inhibitor, full curve, poor fit].

For `O=C(O)c1ccc2oc(C(=O)c3ccccc3)cc2c1`, which Potency is on record?
Its Potency is “inactive”.

With `O=C(CN1C(=O)c2ccccc2S1(=O)=O)Nc1cccnc1` as the compound, how does the Potency read?
The Potency was inconclusive: 39.8 µM [inhibitor, partial curve, poor fit].

How did the Potency turn out when `CCCCn1c(N)c(N(CCOC)C(=O)c2ccc(-c3ccc(C(C)=O)cc3)o2)c(=O)[nH]c1=O` was run?
Its Potency is inconclusive: 44.7 µM [inhibitor, partial curve, poor fit].

With `CN(C)C(=O)c1ccc(-c2nc(N(C)C)c3ccccc3n2)cc1` as the compound, how does the Potency read?
Its Potency is inconclusive: 44.7 µM [inhibitor, partial curve, poor fit].

With `O=[N+]([O-])c1ccccc1S(=O)(=O)NCCSc1ccccc1` as the compound, how does the Potency read?
The Potency was inconclusive: 35.5 µM [inhibitor, partial curve, poor fit].

Which Potency does the source give for `Cc1cc2c(cc1C)CSC(c1cc(Br)cc(Br)c1O)SC2` here?
Its Potency is inconclusive: 50.1 µM [inhibitor, partial curve, poor fit].

How did the Potency turn out when `CN(Cc1nccn1C)C(=O)c1csc2nc(-c3ccc(C(F)(F)F)cc3)cn12` was run?
Its Potency is “inactive”.

Which Potency does the source give for `Clc1ccc(-c2cn3nc4c(nc3n2)CCCC4)cc1` here?
Its Potency is “inactive”.

With `COc1ccc(Cn2c(C3CCN(C(=O)c4cc(C)cc(C)c4)CC3)n[nH]c2=O)cc1` as the compound, how does the Potency read?
Its Potency is inconclusive: 79.4 µM [inhibitor, single point].

How did the Potency turn out when `CCc1c(C)sc(NC(=O)/C=C/c2ccccc2)c1C#N` was run?
The Potency was inconclusive: 31.6 µM [inhibitor, partial curve, poor fit].

How did the Potency turn out when `Cc1nc2c(C)cccn2c1/C(O)=C1\C(=O)C(=O)N(CCN2CCOCC2)C1c1ccncc1` (configuration not stated) was run?
Its Potency is inconclusive: 3.55 µM [inhibitor, full curve, poor fit].

How did the Potency turn out when `Cc1nc(SCc2nc(-c3ccccc3)oc2C)[nH]c(=O)c1C` was run?
The Potency was “inactive”.

How did the Potency turn out when `N#CC(=C(/N)Sc1ccccc1N)/C(C#N)=C(\N)Sc1ccccc1N` was run?
Its Potency is active: 31.6 µM and inconclusive: 25.1 µM [inhibitor, full curve, poor fit].

For `Cc1ccc(Cl)cc1NC(=O)N[C@H](C)C(=O)O`, which Potency is on record?
Its Potency is “inactive”.

How did the Potency turn out when `Cc1ccc(OCC(=O)NCCN2CCCC2)cc1` was run?
The Potency was inconclusive: 79.4 µM [inhibitor, partial curve, poor fit].

For `Cc1c(Cl)cccc1NC(=O)c1ccc(C(=O)Nc2cccc(Cl)c2C)cc1`, which Potency is on record?
The Potency was inconclusive: 44.7 µM [inhibitor, partial curve, poor fit].

With `CC(=O)OC(COc1ccc(F)cc1)Cn1cnc2ccccc21` (configuration not stated) as the compound, how does the Potency read?
Its Potency is inconclusive: 56.2 µM [inhibitor, partial curve, poor fit].

With `COc1cccc(CNC(=O)c2ccc(C)c(S(=O)(=O)N3CCCCC3)c2)c1` as the compound, how does the Potency read?
Its Potency is inconclusive: 112 µM [inhibitor, single point].

With `Clc1ccc2c(N/N=C/c3cccnc3)ccnc2c1` as the compound, how does the Potency read?
The Potency was “inactive”.

For `CC1CCN(C(=O)c2cnn(-c3cccc(Cl)c3)c2C2CCN(C(=O)OC(C)(C)C)CC2)CC1`, which Potency is on record?
The Potency was “inactive”.

Which Potency does the source give for `COc1ccc(C(=O)NCC2Cn3cccc3C(=O)N2CC(C)C)cn1` (configuration not stated) here?
Its Potency is “inactive”.

`CC(NC(=O)CC(C)(C)CC(=O)O)c1cc2ccccc2o1` (configuration not stated) was tested. Which Potency did it give?
The Potency was inconclusive: 10 µM [inhibitor, full curve, poor fit].

Which Potency does the source give for `CC(=O)N1c2ccccc2C(=O)C1N1CCN(c2ccccc2)CC1` (configuration not stated) here?
The Potency was inconclusive: 100 µM [inhibitor, partial curve, poor fit].

With `COc1ccc(OCC(=O)Nc2ccc3c(c2)nc(CCN2CCN(C)CC2)n3C)cc1` as the compound, how does the Potency read?
The Potency was “inactive”.

Which Potency does the source give for `CC(C)[S+](=O)([O-])N1CCN(c2ccc(Cl)nn2)C(=O)C1` here?
Its Potency is inconclusive: 28.2 µM [inhibitor, single point].

For `Cc1cccc2c(C(=O)N3CCN(C(=O)c4ccco4)CC3)cc(-c3cccc(Br)c3)nc12`, which Potency is on record?
Its Potency is inconclusive: 56.2 µM [inhibitor, partial curve, poor fit].

How did the activity change, negative = inhibition turn out when `CNc1nc(-c2cc(C)n(-c3c(C)n(C)n(-c4ccccc4)c3=O)c2C)cs1` was run?
The activity change, negative = inhibition was inconclusive: -57.1% [inhibitor].

`COCc1cc(=O)n(CC(=O)Nc2cccc(Br)c2)c(N2CCOCC2)n1` was tested. Which Potency did it give?
Its Potency is inconclusive: 31.6 µM [inhibitor, full curve, poor fit].

With `COc1cc(-c2nnc(NC(=O)CS(=O)(=O)c3ccc(C)cc3)o2)cc(OC)c1OC` as the compound, how does the Potency read?
Its Potency is “inactive”.

For `COc1ccc(CNC[C@H]2Cn3cc(-c4ccccc4)nc3CO2)cc1`, which Potency is on record?
Its Potency is inconclusive: 100 µM [inhibitor, partial curve].

For `Cc1ccc(OCc2ccc(-c3nc(C#N)c(NCc4ccccc4Cl)o3)o2)cc1`, which Potency is on record?
Its Potency is inconclusive: 126 µM [inhibitor, partial curve, poor fit].

Which Potency does the source give for `OC(CNCC(c1ccc(Cl)cc1Cl)c1c[nH]c2ccccc12)c1ccccc1` (configuration not stated) here?
The Potency was inconclusive: 100 µM [inhibitor, single point].

`C=CC(O)CCCCC` (configuration not stated) was tested. Which Potency did it give?
The Potency was “inactive”.

How did the Potency turn out when `NC(=S)Nc1ccc2cn[nH]c2c1` was run?
Its Potency is “inactive”.

Which Potency does the source give for `Cc1nc(C)c(C(=O)N2CCC3(CC2)CC(N2CCOCC2)CCO3)s1` (configuration not stated) here?
Its Potency is inconclusive: 7.08 µM [inhibitor, partial curve, poor fit].

For `CC1=C[C@@H](CN2CCN(c3ncccn3)CC2)[C@H](C(C)C)C[C@H]1Cc1nnc(Cc2c[nH]c3ccccc23)o1`, which Potency is on record?
The Potency was “inactive”.

How did the Potency turn out when `Cc1nc(NC2CC2)sc1C(=O)N1CCC(C(N)=O)CC1` was run?
Its Potency is “inactive”.
